Experimental data taken from patent publication US20220119490A1.
No constants are given. Whether binding was seen depends on the method and setting. For part of these data: Binding seen in cells or lysates may run through a third protein. Some results given as binding are weak or reduced against the parent protein; the word gives no strength. Each block holds one binder with its values, some of them ahead of it.

Chains of the proteins cited; added tags and fusions are not shown. Residues count along the entry.
UniProt Q8NHL6, residues 24-650: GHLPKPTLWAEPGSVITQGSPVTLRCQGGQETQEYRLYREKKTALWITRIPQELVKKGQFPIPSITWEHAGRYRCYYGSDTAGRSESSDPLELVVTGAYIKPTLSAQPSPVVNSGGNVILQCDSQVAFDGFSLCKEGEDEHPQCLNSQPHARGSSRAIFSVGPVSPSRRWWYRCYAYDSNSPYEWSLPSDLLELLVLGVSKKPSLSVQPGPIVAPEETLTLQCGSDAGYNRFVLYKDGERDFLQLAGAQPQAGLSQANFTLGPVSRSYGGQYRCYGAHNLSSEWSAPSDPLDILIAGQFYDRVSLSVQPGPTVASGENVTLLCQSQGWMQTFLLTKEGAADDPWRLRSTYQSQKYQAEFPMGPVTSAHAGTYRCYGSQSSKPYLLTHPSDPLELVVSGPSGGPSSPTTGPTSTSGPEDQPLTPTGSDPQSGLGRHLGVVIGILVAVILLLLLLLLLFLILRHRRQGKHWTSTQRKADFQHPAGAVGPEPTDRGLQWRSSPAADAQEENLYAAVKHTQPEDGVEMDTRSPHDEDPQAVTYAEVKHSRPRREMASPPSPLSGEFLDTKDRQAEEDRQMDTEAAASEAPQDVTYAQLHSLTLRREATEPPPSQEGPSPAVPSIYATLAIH
UniProt Q8NHJ6, residues 22-448: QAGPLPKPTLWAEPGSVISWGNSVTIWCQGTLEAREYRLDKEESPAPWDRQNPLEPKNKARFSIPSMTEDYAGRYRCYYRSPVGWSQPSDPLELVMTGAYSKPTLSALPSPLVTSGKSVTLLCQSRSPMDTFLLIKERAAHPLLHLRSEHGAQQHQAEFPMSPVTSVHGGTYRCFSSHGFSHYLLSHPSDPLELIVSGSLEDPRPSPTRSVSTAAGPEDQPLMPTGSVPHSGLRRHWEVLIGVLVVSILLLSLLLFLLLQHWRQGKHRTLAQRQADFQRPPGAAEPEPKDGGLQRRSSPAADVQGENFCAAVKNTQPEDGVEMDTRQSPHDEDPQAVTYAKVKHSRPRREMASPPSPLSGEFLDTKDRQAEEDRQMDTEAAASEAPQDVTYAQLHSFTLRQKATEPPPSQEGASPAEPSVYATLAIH

Columns and labels:
[1] = target: T1, CNTN1 extracellular domain (human) (UniProt Q12860); assay: SPR; CNTN1 ECD-Fc immobilized on CM5, analyte at 250 nM (FIG. 9I)
T1 sequence (looked up): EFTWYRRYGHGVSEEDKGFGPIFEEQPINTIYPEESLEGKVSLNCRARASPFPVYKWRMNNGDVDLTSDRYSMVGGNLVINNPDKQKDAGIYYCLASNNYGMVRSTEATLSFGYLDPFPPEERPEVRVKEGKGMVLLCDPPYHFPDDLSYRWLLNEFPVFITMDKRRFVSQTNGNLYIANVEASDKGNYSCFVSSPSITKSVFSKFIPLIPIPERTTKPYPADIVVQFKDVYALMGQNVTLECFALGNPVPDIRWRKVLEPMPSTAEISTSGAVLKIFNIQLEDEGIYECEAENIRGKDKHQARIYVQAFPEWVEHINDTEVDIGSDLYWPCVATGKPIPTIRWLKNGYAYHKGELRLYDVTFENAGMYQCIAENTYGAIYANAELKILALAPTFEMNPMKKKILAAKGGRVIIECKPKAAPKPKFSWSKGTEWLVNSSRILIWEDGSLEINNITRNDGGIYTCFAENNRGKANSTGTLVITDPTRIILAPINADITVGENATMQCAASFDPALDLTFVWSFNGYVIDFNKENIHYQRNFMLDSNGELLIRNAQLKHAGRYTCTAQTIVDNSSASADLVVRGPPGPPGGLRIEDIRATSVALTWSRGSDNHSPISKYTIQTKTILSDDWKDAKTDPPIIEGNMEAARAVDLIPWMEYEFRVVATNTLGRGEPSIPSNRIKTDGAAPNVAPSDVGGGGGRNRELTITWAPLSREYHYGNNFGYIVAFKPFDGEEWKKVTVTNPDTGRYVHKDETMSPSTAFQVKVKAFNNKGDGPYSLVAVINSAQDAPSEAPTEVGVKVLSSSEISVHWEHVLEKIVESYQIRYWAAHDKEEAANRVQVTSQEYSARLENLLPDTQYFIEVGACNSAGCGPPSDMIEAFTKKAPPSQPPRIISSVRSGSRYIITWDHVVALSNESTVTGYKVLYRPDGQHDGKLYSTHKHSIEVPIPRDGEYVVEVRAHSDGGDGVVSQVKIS

[2] = target: LILRB1 expressed on cells (human) (UniProt Q8NHL6); assay: co-immunoprecipitation, LILRB1-FLAG with EDAR-HA co-expressed in cells
[3] = target: LILRB4 expressed on cells (human) (UniProt Q8NHJ6); assay: co-immunoprecipitation, LILRB4-FLAG with CNTFR-HA co-expressed in cells

- binding [1]: binds
B1: NFASC (recombinant) (receptor, human, UniProt O94856 25-1217, looked up)
chain: IEIPMDPSIQNELTQPPTITKQSAKDHIVDPRDNILIECEAKGNPAPSFHWTRNSRFFNIAKDPRVSMRRRSGTLVIDFRSGGRPEEYEGEYQCFARNKFGTALSNRIRLQVSKSPLWPKENLDPVVVQEGAPLTLQCNPPPGLPSPVIFWMSSSMEPITQDKRVSQGHNGDLYFSNVMLQDMQTDYSCNARFHFTHTIQQKNPFTLKVLTTRGVAERTPSFMYPQGTASSQMVLRGMDLLLECIASGVPTPDIAWYKKGGDLPSDKAKFENFNKALRITNVSEEDSGEYFCLASNKMGSIRHTISVRVKAAPYWLDEPKNLILAPGEDGRLVCRANGNPKPTVQWMVNGEPLQSAPPNPNREVAGDTIIFRDTQISSRAVYQCNTSNEHGYLLANAFVSVLDVPPRMLSPRNQLIRVILYNRTRLDCPFFGSPIPTLRWFKNGQGSNLDGGNYHVYENGSLEIKMIRKEDQGIYTCVATNILGKAENQVRLEVKDPTRIYRMPEDQVARRGTTVQLECRVKHDPSLKLTVSWLKDDEPLYIGNRMKKEDDSLTIFGVAERDQGSYTCVASTELDQDLAKAYLTVLADQATPTNRLAALPKGRPDRPRDLELTDLAERSVRLTWIPGDANNSPITDYVVQFEEDQFQPGVWHDHSKYPGSVNSAVLRLSPYVNYQFRVIAINEVGSSHPSLPSERYRTSGAPPESNPGDVKGEGTRKNNMEITWTPMNATSAFGPNLRYIVKWRRRETREAWNNVTVWGSRYVVGQTPVYVPYEIRVQAENDFGKGPEPESVIGYSGEDYPRAAPTEVKVRVMNSTAISLQWNRVYSDTVQGQLREYRAYYWRESSLLKNLWVSQKRQQASFPGDRLRGVVSRLFPYSNYKLEMVVVNGRGDGPRSETKEFTTPEGVPSAPRRFRVRQPNLETINLEWDHPEHPNGIMIGYTLKYVAFNGTKVGKQIVENFSPNQTKFTVQRTDPVSRYRFTLSARTQVGSGEAVTEESPAPPNEATPTAAPPTLPPTTVGATGAVSSTDATAIAATTEATTVPIIPTVAPTTIATTTTVATTTTTTAAATTTTESPPTTTSGTKIHESAPDEQSIWNVTVLPNSKWANITWKHNFGPGTDFVVEYIDSNHTKKTVPVKAQAQPIQLTDLYPGMTYTLRVYSRDNEGISSTVITFMTSTAYTNNQADIATQGW

- binding [2]: binds
B2: EDAR expressed on cells (receptor, human, UniProt Q9UNE0 27-448, looked up)
chain: EYSNCGENEYYNQTTGLCQECPPCGPGEEPYLSCGYGTKDEDYGCVPCPAEKFSKGGYQICRRHKDCEGFFRATVLTPGDMENDAECGPCLPGYYMLENRPRNIYGMVCYSCLLAPPNTKECVGATSGASANFPGTSGSSTLSPFQHAHKELSGQGHLATALIIAMSTIFIMAIAIVLIIMFYILKTKPSAPACCTSHPGKSVEAQVSKDEEKKEAPDNVVMFSEKDEFEKLTATPAKPTKSENDASSENEQLLSRSVDSDEEPAPDKQGSPELCLLSLVHLAREKSATSNKSAGIQSRRKKILDVYANVCGVVEGLSPTELPFDCLEKTSRMLSSTYNSEKAVVKTWRHLAESFGLKRDEIGGMTDGMQLFDRISTAGYSIPELLTKLVQIERLDAVESLCADILEWAGVVPPASQPHAAS

- binding [3]: binds
B3: CNTFR expressed on cells (receptor, human, UniProt P26992 23-342, looked up)
chain: QRHSPQEAPHVQYERLGSDVTLPCGTANWDAAVTWRVNGTDLAPDLLNGSQLVLHGLELGHSGLYACFHRDSWHLRHQVLLHVGLPPREPVLSCRSNTYPKGFYCSWHLPTPTYIPNTFNVTVLHGSKIMVCEKDPALKNRCHIRYMHLFSTIKYKVSISVSNALGHNATAITFDEFTIVKPDPPENVVARPVPSNPRRLEVTWQTPSTWPDPESFPLKFFLRYRPLILDQWQHVELSDGTAHTITDAYAGKEYIIQVAAKDNEIGTWSDWSVAAHATPWTEEPRHLTTEAQAAETTTSTTSSLAPPPTTKICDPGELGS
